37 targets from the supplement of paper PMC11006884 can be followed below.

Sequences of proteins named here, by UniProt entry; tags and fusion partners are left off. A change or cut given only in a name is not applied to a line headed by its entry.
UniProt O14727: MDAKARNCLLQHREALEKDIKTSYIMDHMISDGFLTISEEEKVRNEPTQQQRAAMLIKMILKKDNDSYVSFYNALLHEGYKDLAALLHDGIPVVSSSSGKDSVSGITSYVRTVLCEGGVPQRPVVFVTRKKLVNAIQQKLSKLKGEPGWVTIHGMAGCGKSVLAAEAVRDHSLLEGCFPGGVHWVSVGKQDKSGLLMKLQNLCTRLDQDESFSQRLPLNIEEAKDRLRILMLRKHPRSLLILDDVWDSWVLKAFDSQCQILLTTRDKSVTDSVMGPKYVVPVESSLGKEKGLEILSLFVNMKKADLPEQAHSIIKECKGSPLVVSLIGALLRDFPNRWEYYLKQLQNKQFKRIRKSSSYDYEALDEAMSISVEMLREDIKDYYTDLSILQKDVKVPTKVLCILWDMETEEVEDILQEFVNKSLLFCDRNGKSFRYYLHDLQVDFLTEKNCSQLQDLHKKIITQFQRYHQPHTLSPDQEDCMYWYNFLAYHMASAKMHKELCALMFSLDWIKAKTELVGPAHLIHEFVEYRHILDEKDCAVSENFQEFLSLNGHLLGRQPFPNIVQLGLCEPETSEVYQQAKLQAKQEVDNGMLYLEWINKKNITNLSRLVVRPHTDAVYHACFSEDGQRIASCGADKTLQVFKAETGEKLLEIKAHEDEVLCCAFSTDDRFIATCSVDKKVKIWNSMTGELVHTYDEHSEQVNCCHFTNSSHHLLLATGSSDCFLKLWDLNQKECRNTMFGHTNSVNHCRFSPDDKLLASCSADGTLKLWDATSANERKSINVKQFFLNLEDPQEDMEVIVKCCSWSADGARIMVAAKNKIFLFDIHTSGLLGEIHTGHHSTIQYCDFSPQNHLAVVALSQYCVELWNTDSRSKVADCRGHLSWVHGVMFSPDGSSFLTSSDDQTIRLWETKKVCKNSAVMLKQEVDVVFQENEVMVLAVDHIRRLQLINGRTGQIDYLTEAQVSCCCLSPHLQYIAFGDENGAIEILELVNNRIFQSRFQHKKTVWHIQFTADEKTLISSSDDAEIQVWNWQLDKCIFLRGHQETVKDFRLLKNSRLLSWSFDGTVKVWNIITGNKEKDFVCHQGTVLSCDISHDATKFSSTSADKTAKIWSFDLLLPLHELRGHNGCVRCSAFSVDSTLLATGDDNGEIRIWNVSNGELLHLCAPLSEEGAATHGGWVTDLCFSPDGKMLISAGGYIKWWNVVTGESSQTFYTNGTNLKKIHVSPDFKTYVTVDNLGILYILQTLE
UniProt O14654: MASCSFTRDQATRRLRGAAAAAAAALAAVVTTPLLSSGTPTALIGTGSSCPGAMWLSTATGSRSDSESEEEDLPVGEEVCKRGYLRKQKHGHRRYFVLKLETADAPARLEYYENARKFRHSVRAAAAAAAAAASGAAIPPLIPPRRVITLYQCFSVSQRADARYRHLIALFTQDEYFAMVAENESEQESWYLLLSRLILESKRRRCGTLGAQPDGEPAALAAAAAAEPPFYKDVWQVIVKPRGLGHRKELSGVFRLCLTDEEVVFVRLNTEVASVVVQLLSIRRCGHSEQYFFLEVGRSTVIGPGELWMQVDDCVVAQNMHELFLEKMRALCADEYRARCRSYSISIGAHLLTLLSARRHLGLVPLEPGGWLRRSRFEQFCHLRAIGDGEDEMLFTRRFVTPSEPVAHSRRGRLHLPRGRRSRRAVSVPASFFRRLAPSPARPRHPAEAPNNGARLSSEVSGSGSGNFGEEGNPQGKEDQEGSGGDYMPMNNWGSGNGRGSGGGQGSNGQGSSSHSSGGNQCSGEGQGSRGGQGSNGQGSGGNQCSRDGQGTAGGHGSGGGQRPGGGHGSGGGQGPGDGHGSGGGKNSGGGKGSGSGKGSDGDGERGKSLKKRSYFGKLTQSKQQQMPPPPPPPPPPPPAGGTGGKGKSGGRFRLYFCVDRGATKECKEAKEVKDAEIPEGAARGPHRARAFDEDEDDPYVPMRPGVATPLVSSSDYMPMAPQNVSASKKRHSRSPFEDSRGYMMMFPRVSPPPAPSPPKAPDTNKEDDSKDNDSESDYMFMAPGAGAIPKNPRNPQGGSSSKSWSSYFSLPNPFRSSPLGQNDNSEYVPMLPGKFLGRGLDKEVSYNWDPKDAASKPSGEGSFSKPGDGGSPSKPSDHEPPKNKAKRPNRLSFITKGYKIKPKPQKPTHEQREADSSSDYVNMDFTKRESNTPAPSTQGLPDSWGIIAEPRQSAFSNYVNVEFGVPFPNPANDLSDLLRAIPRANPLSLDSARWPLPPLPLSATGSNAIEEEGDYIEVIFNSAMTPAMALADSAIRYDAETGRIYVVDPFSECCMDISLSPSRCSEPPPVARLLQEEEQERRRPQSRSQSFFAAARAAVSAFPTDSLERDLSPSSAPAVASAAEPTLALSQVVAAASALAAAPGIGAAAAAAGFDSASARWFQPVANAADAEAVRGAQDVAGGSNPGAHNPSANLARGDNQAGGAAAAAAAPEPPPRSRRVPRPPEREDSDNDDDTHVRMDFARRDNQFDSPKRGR
UniProt O15287: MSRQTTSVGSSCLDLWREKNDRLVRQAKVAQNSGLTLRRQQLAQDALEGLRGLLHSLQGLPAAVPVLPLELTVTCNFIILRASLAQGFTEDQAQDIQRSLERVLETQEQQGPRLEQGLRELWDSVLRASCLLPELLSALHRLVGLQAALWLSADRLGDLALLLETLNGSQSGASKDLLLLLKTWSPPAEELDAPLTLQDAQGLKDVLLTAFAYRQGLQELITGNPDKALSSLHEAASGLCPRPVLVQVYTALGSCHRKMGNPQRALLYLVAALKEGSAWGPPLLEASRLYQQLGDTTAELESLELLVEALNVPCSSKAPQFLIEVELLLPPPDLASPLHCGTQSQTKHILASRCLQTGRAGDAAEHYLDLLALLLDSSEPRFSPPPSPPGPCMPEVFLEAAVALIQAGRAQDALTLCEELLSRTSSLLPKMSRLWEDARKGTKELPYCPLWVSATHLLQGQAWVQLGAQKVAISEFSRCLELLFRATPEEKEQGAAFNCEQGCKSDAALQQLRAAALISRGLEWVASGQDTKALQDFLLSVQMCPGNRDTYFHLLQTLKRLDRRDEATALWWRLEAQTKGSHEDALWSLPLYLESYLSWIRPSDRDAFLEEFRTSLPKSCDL
UniProt O00571: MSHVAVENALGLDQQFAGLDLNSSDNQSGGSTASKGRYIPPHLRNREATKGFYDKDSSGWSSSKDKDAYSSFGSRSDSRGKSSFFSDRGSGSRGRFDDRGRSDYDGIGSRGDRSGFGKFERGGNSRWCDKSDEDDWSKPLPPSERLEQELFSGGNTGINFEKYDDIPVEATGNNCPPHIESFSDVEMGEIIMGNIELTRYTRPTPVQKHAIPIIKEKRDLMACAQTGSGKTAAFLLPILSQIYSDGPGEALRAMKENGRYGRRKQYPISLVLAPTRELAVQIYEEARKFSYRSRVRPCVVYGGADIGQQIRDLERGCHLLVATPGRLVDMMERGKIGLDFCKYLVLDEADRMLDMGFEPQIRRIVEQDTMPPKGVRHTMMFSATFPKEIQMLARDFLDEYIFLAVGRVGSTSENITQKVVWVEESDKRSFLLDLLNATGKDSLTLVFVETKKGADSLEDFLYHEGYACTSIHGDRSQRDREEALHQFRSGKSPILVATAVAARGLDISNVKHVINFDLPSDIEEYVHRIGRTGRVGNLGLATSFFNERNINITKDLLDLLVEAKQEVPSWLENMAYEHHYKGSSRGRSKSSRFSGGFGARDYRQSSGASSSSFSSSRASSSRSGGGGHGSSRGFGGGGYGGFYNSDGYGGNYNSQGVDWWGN
UniProt O14818: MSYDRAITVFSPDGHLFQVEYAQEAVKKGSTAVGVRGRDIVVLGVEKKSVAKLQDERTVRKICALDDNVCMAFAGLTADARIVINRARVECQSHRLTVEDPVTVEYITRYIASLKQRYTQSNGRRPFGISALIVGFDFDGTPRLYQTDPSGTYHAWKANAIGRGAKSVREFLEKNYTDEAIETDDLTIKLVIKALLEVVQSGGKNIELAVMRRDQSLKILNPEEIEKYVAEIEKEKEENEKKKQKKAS
UniProt O15381: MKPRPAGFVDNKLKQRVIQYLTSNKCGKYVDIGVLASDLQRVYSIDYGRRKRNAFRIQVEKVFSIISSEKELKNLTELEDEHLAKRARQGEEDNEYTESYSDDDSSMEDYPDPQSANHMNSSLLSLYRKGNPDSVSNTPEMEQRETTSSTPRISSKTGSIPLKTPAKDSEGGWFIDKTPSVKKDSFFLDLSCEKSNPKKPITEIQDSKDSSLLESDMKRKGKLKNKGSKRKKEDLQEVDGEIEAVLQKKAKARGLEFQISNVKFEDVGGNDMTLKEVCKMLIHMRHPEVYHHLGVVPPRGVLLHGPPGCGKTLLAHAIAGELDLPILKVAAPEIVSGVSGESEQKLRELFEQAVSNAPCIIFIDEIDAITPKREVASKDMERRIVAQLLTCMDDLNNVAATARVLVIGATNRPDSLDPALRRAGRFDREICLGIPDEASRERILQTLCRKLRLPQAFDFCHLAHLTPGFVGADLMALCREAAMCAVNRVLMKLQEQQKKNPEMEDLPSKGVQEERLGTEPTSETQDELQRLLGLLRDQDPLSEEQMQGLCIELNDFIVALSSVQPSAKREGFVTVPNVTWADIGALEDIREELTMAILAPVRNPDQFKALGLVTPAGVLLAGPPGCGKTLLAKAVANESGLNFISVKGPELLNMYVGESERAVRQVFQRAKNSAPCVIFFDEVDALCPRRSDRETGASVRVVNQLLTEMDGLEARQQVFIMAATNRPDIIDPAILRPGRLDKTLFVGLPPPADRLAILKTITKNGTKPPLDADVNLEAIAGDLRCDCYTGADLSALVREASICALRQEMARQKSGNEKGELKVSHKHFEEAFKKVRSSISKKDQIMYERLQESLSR
UniProt O15355: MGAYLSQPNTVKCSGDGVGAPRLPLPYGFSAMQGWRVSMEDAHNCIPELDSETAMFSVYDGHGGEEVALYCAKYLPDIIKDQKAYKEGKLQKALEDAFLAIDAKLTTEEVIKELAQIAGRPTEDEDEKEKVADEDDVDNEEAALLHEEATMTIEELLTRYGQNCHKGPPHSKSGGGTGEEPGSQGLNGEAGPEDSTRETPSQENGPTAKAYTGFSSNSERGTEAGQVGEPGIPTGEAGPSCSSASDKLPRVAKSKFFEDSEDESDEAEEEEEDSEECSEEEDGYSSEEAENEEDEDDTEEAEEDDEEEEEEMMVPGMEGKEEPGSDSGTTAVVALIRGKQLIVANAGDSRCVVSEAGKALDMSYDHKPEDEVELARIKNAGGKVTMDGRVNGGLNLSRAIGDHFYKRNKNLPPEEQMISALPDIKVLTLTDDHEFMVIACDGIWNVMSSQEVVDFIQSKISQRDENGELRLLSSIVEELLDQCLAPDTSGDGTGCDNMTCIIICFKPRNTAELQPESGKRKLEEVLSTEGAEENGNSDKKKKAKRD
UniProt O00244: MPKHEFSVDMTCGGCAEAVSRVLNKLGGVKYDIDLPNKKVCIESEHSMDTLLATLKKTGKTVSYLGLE
UniProt O00231, whole entry: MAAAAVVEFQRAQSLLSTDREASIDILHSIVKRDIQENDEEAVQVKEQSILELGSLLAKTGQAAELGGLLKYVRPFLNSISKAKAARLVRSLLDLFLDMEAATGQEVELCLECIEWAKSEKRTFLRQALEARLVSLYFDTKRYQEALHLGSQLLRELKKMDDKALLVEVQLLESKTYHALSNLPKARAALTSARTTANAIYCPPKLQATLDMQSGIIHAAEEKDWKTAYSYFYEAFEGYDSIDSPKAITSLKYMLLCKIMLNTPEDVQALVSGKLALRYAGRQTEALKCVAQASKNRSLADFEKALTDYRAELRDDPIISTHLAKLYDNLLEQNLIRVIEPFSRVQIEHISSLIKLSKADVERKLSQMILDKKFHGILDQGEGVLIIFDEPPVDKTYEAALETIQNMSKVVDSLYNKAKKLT
UniProt O15371, whole entry, looked up: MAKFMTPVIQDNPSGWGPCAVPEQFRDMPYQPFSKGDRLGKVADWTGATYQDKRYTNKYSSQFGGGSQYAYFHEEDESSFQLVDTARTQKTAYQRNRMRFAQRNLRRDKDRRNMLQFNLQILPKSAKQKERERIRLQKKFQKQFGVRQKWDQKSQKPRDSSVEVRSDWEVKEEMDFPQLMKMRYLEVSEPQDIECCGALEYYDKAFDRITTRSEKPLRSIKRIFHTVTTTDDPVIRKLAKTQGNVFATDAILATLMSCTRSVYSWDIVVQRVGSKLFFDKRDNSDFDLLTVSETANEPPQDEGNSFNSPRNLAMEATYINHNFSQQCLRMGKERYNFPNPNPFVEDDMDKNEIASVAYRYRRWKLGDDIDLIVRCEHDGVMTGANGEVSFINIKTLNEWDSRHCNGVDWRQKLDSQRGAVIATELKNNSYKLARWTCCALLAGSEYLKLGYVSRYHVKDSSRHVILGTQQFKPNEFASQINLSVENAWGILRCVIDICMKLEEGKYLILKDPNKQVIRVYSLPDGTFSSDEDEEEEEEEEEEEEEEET

The targets with a hit were mostly taken out for another list; the other results follow. The data scatter; read single values as rough. The list shows a part of the results, in another mix than the full data.

Compound in this assay: COC(=O)/C=C/c1ccccc1 [methyl cinnamate]
The assay is described as follows: log2 ratio of iodoacetamide-alkyne labeling of the cysteine site, DMSO over compound (competition); higher = stronger covalent engagement of the cysteine by the compound, active = 1 or more. The note with it: 500 µM; treatment time 1 h; system: HEK293T cell lysate. The procedure, abridged:
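For each cysteine, the log2 competition ratio is mean control-channel reporter intensity over mean compound-channel reporter intensity. HEK293T lysate (2 mg/mL) was exposed to vehicle or electrophile (500 µM, 1 h, ambient temperature), labelled with iodoacetamide alkyne (1 h), clicked to sCIP-TMT reagents, digested overnight with trypsin at 37 °C, streptavidin-enriched and analysed by Orbitrap Eclipse LC-MS/MS with FAIMS and FragPipe. Cysteines quantified in only one of three replicates, each with duplicate channels, were excluded.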

UniProt O14979_C177: the “log2 ratio of iodoacetamide-alkyne labeling” value (“log2 ratio” below) was inactive: 0.192.
Under POLRMT C925 (UniProt O00411) stands inactive: -0.13; under PEX7 C5 (UniProt O00628), inactive: 0.21.
To APAF1 C115 (UniProt O14727) belongs inactive: 0.193; to AGPS C297 (UniProt O00116), inactive: 0.108.
On to IRS4 C1055 (UniProt O14654), for which the “log2 ratio” value was inactive: 0.109.
Under ZSWIM8 C125 (UniProt A7E2V4) stands inactive: 0.187.
To FANCG C417 (UniProt O15287) belongs inactive: 0.479; to RNMT C95 (UniProt O43148), inactive: 0.518.
Under KMT2D C392 (UniProt O14686) stands inactive: 0.0592; under SPTBN2 C2070 (UniProt O15020), inactive: 0.331.
For GTPBP1 C46 (UniProt O00178), the “log2 ratio” value is inactive: 0.196.
To POLRMT C591 (UniProt O00411) belongs inactive: -0.29; to PHGDH C19 (UniProt O43175), inactive: -0.118.
Under IRS4 C314 (UniProt O14654) stands inactive: -0.0963; under WDR46 C172 (UniProt O15213), inactive: 0.511.
To DDX3X C468 (UniProt O00571) belongs inactive: 0.0716; to UniProt O15042_C563, inactive: -0.0668; to PSMA7 C63 (UniProt O14818), inactive: 0.0314.
As for POM121C C438 (UniProt A8CG34), the “log2 ratio” value was inactive: 0.0455.
To UniProt O00442_C100 belongs inactive: 0.234; to TAF4 C867 (UniProt O00268), inactive: 0.198.
As for NVL C359 (UniProt O15381), the “log2 ratio” value is inactive: -0.198.
Under UniProt O00213_C672 stands inactive: 0.205.
To UniProt O14628_C178 belongs inactive: 0.16; to PLOD2 C494 (UniProt O00469), inactive: 0.221.
To MYO1C C802 (UniProt O00159) belongs inactive: 0.125.
As to PES1 C391 (UniProt O00541), the “log2 ratio” value is inactive: 0.132.
Under PPM1G C164 (UniProt O15355) stands inactive: 0.359; under ATOX1 C41 (UniProt O00244), inactive: 0.213.
To UniProt O43159_C451 belongs inactive: 0.19; to PSMD11 C289 (UniProt O00231), inactive: 0.409; to IRS4 C381 (UniProt O14654), inactive: 0.126.
For the target ARHGAP6 C769 (UniProt O43182), the “log2 ratio” value was inactive: 0.275.
As to NVL C448 (UniProt O15381), the “log2 ratio” value is inactive: 0.287.
For the target EIF3D C195 (UniProt O15371), the “log2 ratio” value was inactive: -0.019.
Under UniProt O00506_C357 stands inactive: 0.0714.
